# Publication PMC7819943, “Rice protein-binding microarrays: a tool to detect cis-acting elements near promoter regions in rice”
# This is one part of the list.
# Molecular target: T1, OsSMF1 (Oryza sativa, UniProt Q6ZLB0 1-436)
# T1 sequence: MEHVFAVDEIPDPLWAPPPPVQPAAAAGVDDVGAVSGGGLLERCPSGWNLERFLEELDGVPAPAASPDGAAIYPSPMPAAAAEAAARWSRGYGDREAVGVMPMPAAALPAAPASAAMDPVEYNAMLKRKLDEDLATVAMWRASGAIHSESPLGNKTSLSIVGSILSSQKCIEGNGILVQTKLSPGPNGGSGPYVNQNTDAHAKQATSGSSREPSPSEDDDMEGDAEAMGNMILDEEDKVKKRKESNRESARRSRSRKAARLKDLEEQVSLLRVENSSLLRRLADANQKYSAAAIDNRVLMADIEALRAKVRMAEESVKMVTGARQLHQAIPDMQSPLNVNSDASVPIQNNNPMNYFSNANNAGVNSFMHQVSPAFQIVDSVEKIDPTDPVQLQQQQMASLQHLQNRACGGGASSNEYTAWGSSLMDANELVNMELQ
# Assay: protein-binding microarray (RPBM); PBS, 2% BSA, 51.3 ng/ul salmon testes DNA, 50 uM zinc acetate, 200 nM TF, 25 C, 1 h; high values mean tight binding
# Conditions: protein: recombinant; tags: N-terminal polyhistidine and DsRed monomer fusion (pET32a); chain copies: 2; label: CyDye5-dUTP incorporated in the synthesized complementary strand; 3' TTTTT single-stranded linker to array surface; dsDNA, one strand shown
# How it was run: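 Polyhistidine-tagged DsRed fusions of transcription factors, joined at the N-terminus, were expressed in E. coli BL21-CodonPlus and isolated on Ni–NTA. They were incubated at 200 nM for 1 h at 25 °C on a custom Agilent array, double-stranded and BSA-blocked, in PBS with 2% BSA, salmon testes DNA and 50 µM zinc acetate. The binding signal is per-feature fluorescence intensity (arbitrary units) read on an Axon 4000B scanner after washing.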
row,Sequence,binding signal
1,GCAAGGATCATGTCAGGAGAACCCAGCATGGTTAATGCATCGGAGTCACCTAGTGCAG,17400 fluorescence intensity (a.u.)
2,GCACCTTCCCCGCCACGTGTTCCGCCACCGCTCTCAACTCCGGAGTCACCTAGTGCAG,16600 fluorescence intensity (a.u.)
3,TACTCAATCCGGGGTGGTTTTGGGTCCACGTGGCAGTCCACGGAGTCACCTAGTGCAG,35300 fluorescence intensity (a.u.)
4,CGGCGGCATCGCTGATGTCATCATCATCTCTCCCCTTCCTCGGAGTCACCTAGTGCAG,13600 fluorescence intensity (a.u.)
5,CGCGACAACACACCGCCACAAGATGACGCTGACGCACGCTCGGAGTCACCTAGTGCAG,5500 fluorescence intensity (a.u.)
6,CTCTAGTTAGGTGATGACACCCGTGGACCAACATGCCTGGCGGAGTCACCTAGTGCAG,3200 fluorescence intensity (a.u.)
7,AAAATTTGGTCAGATCAGATGAGTCATGAAATGGATGGATCGGAGTCACCTAGTGCAG,12000 fluorescence intensity (a.u.)
8,ACGTGGTGTTGTTGACACAGCAGCTAGTCAGCCAGCAGGACGGAGTCACCTAGTGCAG,5350 fluorescence intensity (a.u.)
9,AATGACGTTTTGACTTATCGTCAGTCGTGACATGTAAGTGCGGAGTCACCTAGTGCAG,26200 fluorescence intensity (a.u.)
10,TAATTTTGTTCTTATTCTAATGCCACGTAAGCGCCACGTACGGAGTCACCTAGTGCAG,29400 fluorescence intensity (a.u.)
11,TGCTAAATGTGACAATGCGAGAGCCAATCAGCCAAAGCAGCGGAGTCACCTAGTGCAG,3350 fluorescence intensity (a.u.)
12,AAGGTAGAGTCAAATAGAAGCTCTATATCATGTAGACACTCGGAGTCACCTAGTGCAG,3360 fluorescence intensity (a.u.)
13,TAATTTTGTGACACACCGAATTAAATGGACAGTTTTGTGACGGAGTCACCTAGTGCAG,3540 fluorescence intensity (a.u.)
14,GTTGGGTCGTTGGGATCACGTGGTGGCGAGAGTGAAGACGCGGAGTCACCTAGTGCAG,3670 fluorescence intensity (a.u.)
15,CCCAAACACATTTTCACTCCTAGATCCAAGTCAACCGACCCGGAGTCACCTAGTGCAG,3340 fluorescence intensity (a.u.)
16,CTACATTGCTAATCCAAATAATTAGCACTAATCACGAAATCGGAGTCACCTAGTGCAG,5180 fluorescence intensity (a.u.)
17,ATTTCTACTCCGACCACTGGAACTAGTGAATGATGCGGCGCGGAGTCACCTAGTGCAG,3720 fluorescence intensity (a.u.)
18,TCTCTCTCTCTCTCTCTCTCTCATGGTCATCGCTTCCCTTCGGAGTCACCTAGTGCAG,4060 fluorescence intensity (a.u.)
19,GAATGGGCCGGCCTAGCTAAGAAGCAAAACTGGGTATAGTCGGAGTCACCTAGTGCAG,4210 fluorescence intensity (a.u.)
20,ACCATCCGATTTCCGCGCCCGTGATTTCACACGTCTCGCGCGGAGTCACCTAGTGCAG,3570 fluorescence intensity (a.u.)
21,CACGCCACGCCACGCCTCACCTCACCACCACCAGGCACCACGGAGTCACCTAGTGCAG,5930 fluorescence intensity (a.u.)

row,Sequence,binding signal
1,TCCTTGTTTATTTCCTTTCATTCGAACTAGAATTGTAATCCGGAGTCACCTAGTGCAG,19500 fluorescence intensity (a.u.)
2,AAAAGTAGTTTTGCACGTCCCTCCAGCATCAGCATCGGACCGGAGTCACCTAGTGCAG,4470 fluorescence intensity (a.u.)
3,AATACGCATCTAGTCGGCCGCGCCAAACGGCCAAACCCATCGGAGTCACCTAGTGCAG,3310 fluorescence intensity (a.u.)
4,CTGTTAATTCCAGTGTTAGAGATCCACGTCGTGTTGATCACGGAGTCACCTAGTGCAG,4940 fluorescence intensity (a.u.)
5,GTCGCTAACTAAGGTGTCGGGAGAGAGAGATTAGTCAGATCGGAGTCACCTAGTGCAG,5040 fluorescence intensity (a.u.)
6,CTGTCTTACTACAAGAAATGGCACGTAGGAGTAGGCAGATCGGAGTCACCTAGTGCAG,4330 fluorescence intensity (a.u.)
7,ATCGAATTGTCACGTAAGCGCCACGTCAATGCTACGTCAGCGGAGTCACCTAGTGCAG,26100 fluorescence intensity (a.u.)
8,AGTGCACAGTTGATAACAAGAGGAGACGTAGTGCTGTGATCGGAGTCACCTAGTGCAG,3700 fluorescence intensity (a.u.)
9,TAATTATAGAACAACCATAATGTAAGGGGAAAATATATGACGGAGTCACCTAGTGCAG,11700 fluorescence intensity (a.u.)
10,GGGGAGGGAGAGGCCACGTCGTCAGCCAGCCAGCCATTTCCGGAGTCACCTAGTGCAG,34800 fluorescence intensity (a.u.)
11,CTCTAAATTTGTGCAGATGTGTCACCTAGATCCCTGAACTCGGAGTCACCTAGTGCAG,4340 fluorescence intensity (a.u.)
12,AACTCCAGTCAAAGCGTCCGTGTCATCGCTATCGTCCATGCGGAGTCACCTAGTGCAG,7880 fluorescence intensity (a.u.)
13,GAGGTGGTGTCGGGGAGGTTGGGAGGTGCAGGATGCATGCCGGAGTCACCTAGTGCAG,3470 fluorescence intensity (a.u.)
14,GGGAGAGGCCTCGCGTCGCGTCTCCCACGTATCGTGGTCCCGGAGTCACCTAGTGCAG,3890 fluorescence intensity (a.u.)
15,ATGACGATAGAGAAACGCACGTCACCGCAACAACCGCCAACGGAGTCACCTAGTGCAG,4270 fluorescence intensity (a.u.)
16,CTGCGCCGCCGTCCCGCCGCCTTCCCGCCACGCGAGCCGTCGGAGTCACCTAGTGCAG,5670 fluorescence intensity (a.u.)
17,CAGTATCCTATTCATTCTTAAGTTCTTAATGATACCCGAGCGGAGTCACCTAGTGCAG,3510 fluorescence intensity (a.u.)
18,AGACAATGCCCTTAAGAGAAATATAGGGGTTGTTTGGTTGCGGAGTCACCTAGTGCAG,4110 fluorescence intensity (a.u.)
19,TAAATTTCACAAAACTACATGTTTTATAGTTCAAGTTACACGGAGTCACCTAGTGCAG,32000 fluorescence intensity (a.u.)
20,CCGCCCGTTGCTAGCTGACACCTGCAAGAGTGCCAGTGAGCGGAGTCACCTAGTGCAG,3400 fluorescence intensity (a.u.)
21,AACAAAGCCAGCCACGTAATGGCGTGAGCCGGAGTAGCCTCGGAGTCACCTAGTGCAG,5000 fluorescence intensity (a.u.)

# Given with bars between the fields: entries from further up
row | Sequence | binding signal
3 | AATACGCATCTAGTCGGCCGCGCCAAACGGCCAAACCCATCGGAGTCACCTAGTGCAG | 3310 fluorescence intensity (a.u.)
4 | CTGTTAATTCCAGTGTTAGAGATCCACGTCGTGTTGATCACGGAGTCACCTAGTGCAG | 4940 fluorescence intensity (a.u.)
5 | GTCGCTAACTAAGGTGTCGGGAGAGAGAGATTAGTCAGATCGGAGTCACCTAGTGCAG | 5040 fluorescence intensity (a.u.)
